# ChEMBL document CHEMBL3045495, “Lipophilic 2-(4-chlorophenyl)-4-thiazolyl-1,4-dihydropyridines: synthesis, calcium channel antagonist activity, and protection against pentylenetetrazole-induced seizure” (Med Chem Res, 2009)
# Protein sequences, listed by entry. Tags and fused reporters are not part of them.
# UniProt O35505, whole entry: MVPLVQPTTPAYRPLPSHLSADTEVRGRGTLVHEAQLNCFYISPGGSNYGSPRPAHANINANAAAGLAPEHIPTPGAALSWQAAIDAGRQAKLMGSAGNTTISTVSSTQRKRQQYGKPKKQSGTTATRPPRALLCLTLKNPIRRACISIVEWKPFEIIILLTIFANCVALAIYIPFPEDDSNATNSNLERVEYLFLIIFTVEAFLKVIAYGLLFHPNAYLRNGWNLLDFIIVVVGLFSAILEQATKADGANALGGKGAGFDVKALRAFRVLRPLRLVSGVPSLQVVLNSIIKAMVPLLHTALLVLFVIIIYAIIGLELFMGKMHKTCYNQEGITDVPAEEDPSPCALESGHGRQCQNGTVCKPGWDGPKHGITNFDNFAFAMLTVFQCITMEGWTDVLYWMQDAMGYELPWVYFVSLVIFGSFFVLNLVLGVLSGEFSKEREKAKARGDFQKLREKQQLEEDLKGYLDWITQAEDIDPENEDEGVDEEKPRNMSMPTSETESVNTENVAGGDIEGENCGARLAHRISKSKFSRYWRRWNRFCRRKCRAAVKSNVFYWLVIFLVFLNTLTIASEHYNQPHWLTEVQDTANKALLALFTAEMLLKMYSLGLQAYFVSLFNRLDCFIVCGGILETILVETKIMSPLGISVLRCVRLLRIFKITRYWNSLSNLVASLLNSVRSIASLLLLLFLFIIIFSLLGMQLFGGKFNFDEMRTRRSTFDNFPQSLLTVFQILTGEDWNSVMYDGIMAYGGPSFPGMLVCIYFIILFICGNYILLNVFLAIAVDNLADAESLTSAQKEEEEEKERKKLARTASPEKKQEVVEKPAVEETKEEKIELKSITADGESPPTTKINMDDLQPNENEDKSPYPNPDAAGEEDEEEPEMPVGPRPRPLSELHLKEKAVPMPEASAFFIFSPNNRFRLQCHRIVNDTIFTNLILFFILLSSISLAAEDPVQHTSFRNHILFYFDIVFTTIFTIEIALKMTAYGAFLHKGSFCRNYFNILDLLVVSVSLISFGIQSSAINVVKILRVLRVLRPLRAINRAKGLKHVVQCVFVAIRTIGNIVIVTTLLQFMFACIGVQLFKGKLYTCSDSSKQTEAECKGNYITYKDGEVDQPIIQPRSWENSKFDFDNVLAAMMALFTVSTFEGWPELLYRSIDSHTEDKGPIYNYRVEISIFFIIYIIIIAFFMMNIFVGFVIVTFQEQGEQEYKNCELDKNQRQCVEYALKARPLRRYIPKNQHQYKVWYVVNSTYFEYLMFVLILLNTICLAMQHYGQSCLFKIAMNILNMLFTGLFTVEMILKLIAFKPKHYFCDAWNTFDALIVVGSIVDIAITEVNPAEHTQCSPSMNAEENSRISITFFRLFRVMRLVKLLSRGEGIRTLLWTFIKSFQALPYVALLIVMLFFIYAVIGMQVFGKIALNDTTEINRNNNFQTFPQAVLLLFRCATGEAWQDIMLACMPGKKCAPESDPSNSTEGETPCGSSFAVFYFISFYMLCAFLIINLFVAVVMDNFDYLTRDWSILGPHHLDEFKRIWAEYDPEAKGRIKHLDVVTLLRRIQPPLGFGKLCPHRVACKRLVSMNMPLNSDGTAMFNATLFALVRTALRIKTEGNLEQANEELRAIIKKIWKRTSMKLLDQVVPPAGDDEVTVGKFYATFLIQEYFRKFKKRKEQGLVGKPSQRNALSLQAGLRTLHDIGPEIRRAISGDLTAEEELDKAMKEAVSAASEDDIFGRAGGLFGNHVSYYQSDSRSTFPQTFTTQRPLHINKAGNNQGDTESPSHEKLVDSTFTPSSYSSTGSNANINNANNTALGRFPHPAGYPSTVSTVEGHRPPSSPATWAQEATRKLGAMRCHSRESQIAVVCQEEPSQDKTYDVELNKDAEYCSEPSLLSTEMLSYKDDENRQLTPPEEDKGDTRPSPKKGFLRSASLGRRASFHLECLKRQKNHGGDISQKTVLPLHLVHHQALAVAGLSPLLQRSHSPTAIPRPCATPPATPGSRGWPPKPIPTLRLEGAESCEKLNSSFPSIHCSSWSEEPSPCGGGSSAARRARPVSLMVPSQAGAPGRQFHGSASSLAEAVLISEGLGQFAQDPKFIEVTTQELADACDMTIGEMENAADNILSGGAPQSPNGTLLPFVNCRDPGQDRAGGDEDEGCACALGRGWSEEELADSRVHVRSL
# Molecular target: Voltage-dependent L-type calcium channel subunit alpha-1C (Cavia porcellus, UniProt O35505)
# Assay: Antagonist activity at Calcium channel in Cavia porcellus (guinea pig) ileal smooth muscle assessed as inhibition of 40 mM KCl-induced contraction compound pretreated for 15 min before KCl treatment
smiles,measurement,value
COC(=O)C1=C(C)NC(C)=C(C(=O)OC)C1c1ccccc1[N+](=O)[O-] [NIFEDIPINE],IC50,50 nM
